Assay results as given in patent publication US8163793B2, “Proline derivatives” (Hoffman-La Roche Inc., priority 2009, dated 2012).
Where a name gives a salt, the structure may show the parent alone.

How the values were obtained:
Cathepsin S = Cathepsin S (UniProt P25774); experiment: Cathepsin enzyme inhibition assay (fluorogenic peptide substrate Z-Val-Val-Arg-AMC), Cathepsin S; format: biochemical, human and mouse; details: enzyme 1 nM, substrate 20 μM, pH 6.5; read-out: CatS IC50
Protocol: (§1) Cathepsin Enzyme Inhibition Assay
(§2) Enzyme activity is measured by observing the increase in fluorescence intensity caused by cleavage of a peptide substrate containing a fluorophore whose emission is quenched in the intact peptide.
(§3) Assay buffer: 100 mM potassium phosphate pH 6.5, EDTA-Na 5 mM, Triton X-100 0.001%, DDT 5 mM.
(§4) Enzymes (all at 1 nM): human and mouse Cathepsin S, Cat K, Cat B, Cat L Substrate (20 μM): Z-Val-Val-Arg-AMC, except for Cat K which uses Z-Leu-Arg-AMC (both from Bachem).
(§5) AMC=7-Amino-4-Methyl-Coumarin.
Enzyme is added to the substance dilutions in 96-well microtitre plates and the reaction is started with substrate. […] IC50 are calculated by standard methods. The results are expressed in μM in the following table.

Cat L = Cat L (UniProt P07711); experiment: Cathepsin enzyme inhibition assay (fluorogenic peptide substrate Z-Val-Val-Arg-AMC), Cathepsin L; format: biochemical, human and mouse; details: enzyme 1 nM, substrate 20 μM, pH 6.5; read-out: CatL IC50
Protocol: as §1, §2, §3, §4, §5
Excitation 360 nm, Emission 465 nm.
Enzyme is added to the substance dilutions in 96-well microtitre plates and the reaction is started with substrate. Fluorescence emission is measured over 20 minutes, during which time a linear increase is observed in the absence of inhibitor. IC50 are calculated by standard methods. The results are expressed in μM in the following table.

IC50 (Cathepsin S): 0.005 µM
IC50 (Cat L): 9.43 µM
SMILES: N#CC1(NC(=O)[C@@H]2C[C@@H](S(=O)(=O)c3ccccc3Cl)CN2)CC1 [Example 42, (2S,4R)-4-(2-Chloro-benzenesulfonyl)-pyrrolidine-2-carboxylic acid (1-cyano-cyclopropyl)-amide Hydrochloride]
